Assay results: patent US20250143305A1, “PYRAZOLE COMPOUND AND PEST CONTROL AGENT CONTAINING THE SAME AS ACTIVE INGREDIENT” (MITSUI CHEMICALS CROP & LIFE SOLUTIONS, INC., priority 2022, published 2025)
Some results were stated once for a whole list of compounds, not compound by compound.

Tests used:
Type in all cases: in vivo
Nilaparvata lugens [1] = assay: Insecticidal test against Nilaparvata lugens, spray on rice seedling; details: 100 ppm; acetone solution sprayed on rice seedling; 10 young larvae; 25° C.; after 6 days
Nilaparvata lugens [2] = assay: Insecticidal test against Nilaparvata lugens, root part of rice seedling immersed; details: 100 ppm, 2% acetone aqueous solution, 10 young larvae, 25° C., after 6 days
Protocol: Insecticidal Test Against Nilaparvata lugens
12.5 ml of a 2% acetone aqueous solution in which the test compound was adjusted to a predetermined concentration was placed in a container, and a root part of a rice (Oryza sativa) seedling fixed with a sponge and a plastic cylinder was immersed. 10 young larvae were released into the container, and the container was covered with a plastic lid. The container was allowed to stand in a thermostatic chamber at 25° C., and the numbers of living insects and dead insects were examined after 6 days.

Myzus persicae = assay: Insecticidal test against Myzus persicae, spray on radish leaves; details: 100 ppm; 20% acetone aqueous solution sprayed on radish leaves; 25 young larvae; 25° C.; after 5 days
Protocol: Insecticidal Test Against Myzus persicae
2.5 ml of a 20% acetone aqueous solution prepared to have a predetermined concentration of the test compound was sprayed on the leaves of radish (Raphanus sativus) in which the roots retained water and 25 young larvae were parasitized. After air drying, it was allowed to stand in a thermostatic chamber at 25° C., and the number of living insects and the number of dead insects were examined after 5 days.

Sogatella furcifera = assay: Insecticidal test against Sogatella furcifera, spray on rice seedling; details: 100 ppm; acetone solution sprayed on rice seedling; 10 young larvae; 25° C.; after 6 days

Measured: mortality rate

CCS(=O)(=O)c1c(-c2cn3c(C)nc(C(F)(F)F)cc3n2)nn(C)c1NC(=O)C(F)(F)C(F)(F)F [compound 222]
≥ 50%: Nilaparvata lugens [1] | Nilaparvata lugens [2] | Myzus persicae | Sogatella furcifera

CCS(=O)(=O)c1c(-c2cn3c(C)nc(C(F)(F)F)cc3n2)nn(C)c1NC(C)=O [compound 223]
≥ 50%: Nilaparvata lugens [1] | Nilaparvata lugens [2] | Myzus persicae | Sogatella furcifera

CCS(=O)(=O)c1c(-c2cn3c(C)nc(C(F)(F)F)cc3n2)nn(C)c1NC(=O)C(F)(F)C(F)F [compound 228]
≥ 50%: Nilaparvata lugens [1] | Nilaparvata lugens [2] | Myzus persicae | Sogatella furcifera

CCSc1c(-c2cn3cnc(C(F)(F)C(F)(F)F)cc3n2)nn(C)c1NC(=O)C(F)(F)C(F)F [compound 236]
≥ 50%: Nilaparvata lugens [1] | Nilaparvata lugens [2] | Myzus persicae | Sogatella furcifera

CCS(=O)(=O)c1c(-c2cn3cnc(C(F)(F)C(F)(F)F)cc3n2)nn(C)c1NC(=O)C(F)(F)C(F)F [compound 237]
≥ 50%: Nilaparvata lugens [1] | Nilaparvata lugens [2] | Myzus persicae | Sogatella furcifera

CCS(=O)(=O)c1c(-c2cn3cnc(C(F)F)cc3n2)nn(C)c1NC(=O)C(F)(F)F [compound 238]
≥ 50%: Nilaparvata lugens [1] | Nilaparvata lugens [2] | Myzus persicae | Sogatella furcifera

CCS(=O)(=O)c1c(-c2cn3cnc(C(F)F)cc3n2)nn(C)c1NC(=O)C(F)(F)C(F)F [compound 240]
≥ 50%: Nilaparvata lugens [1] | Nilaparvata lugens [2] | Myzus persicae | Sogatella furcifera

CCS(=O)(=O)c1c(-c2cn3cnc(C(F)F)cc3n2)nn(C)c1NC(=O)C(F)(F)C(F)(F)F [compound 243]
≥ 50%: Nilaparvata lugens [1] | Nilaparvata lugens [2] | Myzus persicae | Sogatella furcifera

CCSc1c(-c2cn3cnc(C(F)(F)C(F)(F)F)cc3n2)nn(C)c1NC(=O)C(F)(F)C(F)(F)F [compound 251]
≥ 50%: Nilaparvata lugens [1] | Nilaparvata lugens [2] | Myzus persicae | Sogatella furcifera

CCSc1c(-c2cn3cnc(C(F)(F)C(F)(F)F)cc3n2)nn(C)c1NC(=O)C(F)(F)C(F)(F)C(F)(F)F [compound 256]
≥ 50%: Nilaparvata lugens [1] | Nilaparvata lugens [2] | Myzus persicae | Sogatella furcifera

CCSc1c(-c2cn3cnc(C(F)(F)C(F)(F)F)cc3n2)nn(C)c1N [compound 281]
≥ 50%: Nilaparvata lugens [1] | Nilaparvata lugens [2] | Myzus persicae | Sogatella furcifera

CCSc1c(-c2cn3cnc(C(F)(F)C(F)(F)F)cc3n2)nn(CC)c1N [compound 286]
≥ 50%: Nilaparvata lugens [1] | Nilaparvata lugens [2] | Myzus persicae | Sogatella furcifera

CCSc1c(-c2cn3cnc(C(F)(F)C(F)(F)F)cc3n2)nn(CC)c1NC(=O)C(F)(F)C(F)(F)F [compound 290]
≥ 50%: Nilaparvata lugens [1] | Nilaparvata lugens [2] | Myzus persicae | Sogatella furcifera

CCn1nc(-c2cn3cnc(C(F)(F)C(F)(F)F)cc3n2)c(S(=O)(=O)CC)c1NC(=O)C(F)(F)C(F)(F)C(F)(F)F [compound 294]
≥ 50%: Nilaparvata lugens [1] | Nilaparvata lugens [2] | Myzus persicae | Sogatella furcifera

CCS(=O)(=O)c1c(-c2cn3cnc(C(F)(F)F)cc3n2)nn(C)c1NC(=O)c1ncccc1Cl [compound 296]
≥ 50%: Nilaparvata lugens [1] | Nilaparvata lugens [2] | Myzus persicae | Sogatella furcifera

CCSc1c(-c2cn3cnc(C(F)(F)C(F)(F)C(F)(F)F)cc3n2)nn(C)c1NC(=O)C(F)(F)C(F)F [compound 327]
≥ 50%: Nilaparvata lugens [1] | Nilaparvata lugens [2] | Myzus persicae | Sogatella furcifera

CCSc1c(-c2cn3cnc(C(F)(F)F)cc3n2)nn(C2CC2)c1N [compound 330]
≥ 50%: Nilaparvata lugens [1] | Nilaparvata lugens [2] | Myzus persicae | Sogatella furcifera

CCSc1c(-c2cn3cnc(C(F)(F)F)cc3n2)nn(C2CC2)c1NC(=O)C(F)(F)F [compound 341]
≥ 50%: Nilaparvata lugens [1] | Nilaparvata lugens [2] | Myzus persicae | Sogatella furcifera

CCS(=O)(=O)c1c(-c2cn3cnc(C(F)(F)F)cc3n2)nn(C2CC2)c1N [compound 351]
≥ 50%: Nilaparvata lugens [1] | Nilaparvata lugens [2] | Myzus persicae | Sogatella furcifera

CCS(=O)(=O)c1c(-c2cn3cnc(C(F)(F)F)cc3n2)nn(C2CC2)c1NC(=O)C(F)(F)C(F)(F)F [compound 370]
≥ 50%: Nilaparvata lugens [1] | Nilaparvata lugens [2] | Myzus persicae | Sogatella furcifera

CCS(=O)(=O)c1c(-c2cn3cnc(C(F)(F)F)cc3n2)nn(C)c1NC(=O)c1ccnc(C(F)(F)F)n1 [compound 373]
≥ 50%: Nilaparvata lugens [1] | Nilaparvata lugens [2] | Myzus persicae | Sogatella furcifera

CCSc1c(-c2cn3cnc(C(F)(F)Cl)cc3n2)nn(C)c1NC(=O)C(F)(F)F [compound 390]
≥ 50%: Nilaparvata lugens [1] | Nilaparvata lugens [2] | Myzus persicae | Sogatella furcifera

CCS(=O)(=O)c1c(-c2cn3cnc(C(F)(F)Cl)cc3n2)nn(C)c1NC(=O)C(F)(F)F [compound 391]
≥ 50%: Nilaparvata lugens [1] | Nilaparvata lugens [2] | Myzus persicae | Sogatella furcifera

CCS(=O)(=O)c1c(-c2cn3cnc(C(F)(F)F)cc3n2)nn(C)c1NC(=O)c1cnccn1 [compound 394]
≥ 50%: Nilaparvata lugens [1] | Nilaparvata lugens [2] | Myzus persicae | Sogatella furcifera

CCS(=O)(=O)c1c(-c2cn3cnc(C(F)(F)Cl)cc3n2)nn(C)c1N [compound 399]
≥ 50%: Nilaparvata lugens [1] | Nilaparvata lugens [2] | Myzus persicae | Sogatella furcifera

CCSc1c(-c2cn3cnc(C(F)(F)F)cc3n2)nn(CC)c1NC(=O)C(C)(F)F [compound 403]
≥ 50%: Nilaparvata lugens [1] | Nilaparvata lugens [2] | Myzus persicae | Sogatella furcifera

CCn1nc(-c2cn3cnc(C(F)(F)F)cc3n2)c(S(=O)(=O)CC)c1NC(=O)C(C)(F)F [compound 405]
≥ 50%: Nilaparvata lugens [1] | Nilaparvata lugens [2] | Myzus persicae | Sogatella furcifera

CCn1nc(-c2cn3cnc(C(F)(F)F)cc3n2)c(S(=O)(=O)CC)c1NC(=O)C(F)(F)C(F)(F)Cl [compound 406]
≥ 50%: Nilaparvata lugens [1] | Nilaparvata lugens [2] | Myzus persicae | Sogatella furcifera

CCSc1c(-c2cn3cnc(C(F)(F)C(F)(F)F)cc3n2)nn(C)c1NC(=O)C(Cl)Cl [compound 411]
≥ 50%: Nilaparvata lugens [1] | Nilaparvata lugens [2] | Myzus persicae | Sogatella furcifera

CCSc1c(-c2cn3cnc(C(F)(F)C(F)(F)F)cc3n2)nn(C)c1NC(=O)C(F)F [compound 414]
≥ 50%: Nilaparvata lugens [1] | Nilaparvata lugens [2] | Myzus persicae | Sogatella furcifera

CCSc1c(-c2cn3cnc(C(F)(F)C(F)(F)F)cc3n2)nn(C)c1NC(=O)C(F)(F)C(F)(F)Cl [compound 415]
≥ 50%: Nilaparvata lugens [1] | Nilaparvata lugens [2] | Myzus persicae | Sogatella furcifera

CCS(=O)(=O)c1c(-c2cn3cnc(C(F)(F)C(F)(F)F)cc3n2)nn(C)c1NC(=O)C(F)(F)C(F)(F)Cl [compound 417]
≥ 50%: Nilaparvata lugens [1] | Nilaparvata lugens [2] | Myzus persicae | Sogatella furcifera

CCSc1c(-c2cn3cnc(C(F)(F)C(F)(F)F)cc3n2)nn(C)c1NC(=O)C(C)(F)F [compound 419]
≥ 50%: Nilaparvata lugens [1] | Nilaparvata lugens [2] | Myzus persicae | Sogatella furcifera

CCS(=O)(=O)c1c(-c2cn3cnc(C(F)(F)C(F)(F)F)cc3n2)nn(C)c1NC(=O)C(F)(F)C(F)(F)C(F)(F)C(F)(F)F [compound 421]
≥ 50%: Nilaparvata lugens [1] | Nilaparvata lugens [2] | Myzus persicae | Sogatella furcifera

CCn1nc(-c2cn3cnc(C(F)(F)F)cc3n2)c(S(=O)(=O)CC)c1NC(=O)C(Cl)Cl [compound 424]
≥ 50%: Nilaparvata lugens [1] | Nilaparvata lugens [2] | Myzus persicae | Sogatella furcifera

CCn1nc(-c2cn3cnc(C(F)(F)F)cc3n2)c(S(=O)(=O)CC)c1NC(=O)C(F)(F)C(F)(F)C(F)(F)C(F)(F)F [compound 426]
≥ 50%: Nilaparvata lugens [1] | Nilaparvata lugens [2] | Myzus persicae | Sogatella furcifera

CCS(=O)(=O)c1c(-c2cn3cnc(C(F)(F)F)cc3n2)nn(C)c1NC(=O)CC1CC1 [compound 431]
≥ 50%: Nilaparvata lugens [1] | Nilaparvata lugens [2] | Myzus persicae | Sogatella furcifera
